Reference: article PMC6545562, “Slx5/Slx8‐dependent ubiquitin hotspots on chromatin contribute to stress tolerance” (The EMBO Journal, 2019)
No constants are given. Whether binding was seen depends on the method and setting. Tags and fused reporters may be left off the sequences shown.

Biological target: T1, BD-Slx5-RING∆ (S. cerevisiae) (UniProt P32828)
T1 sequence: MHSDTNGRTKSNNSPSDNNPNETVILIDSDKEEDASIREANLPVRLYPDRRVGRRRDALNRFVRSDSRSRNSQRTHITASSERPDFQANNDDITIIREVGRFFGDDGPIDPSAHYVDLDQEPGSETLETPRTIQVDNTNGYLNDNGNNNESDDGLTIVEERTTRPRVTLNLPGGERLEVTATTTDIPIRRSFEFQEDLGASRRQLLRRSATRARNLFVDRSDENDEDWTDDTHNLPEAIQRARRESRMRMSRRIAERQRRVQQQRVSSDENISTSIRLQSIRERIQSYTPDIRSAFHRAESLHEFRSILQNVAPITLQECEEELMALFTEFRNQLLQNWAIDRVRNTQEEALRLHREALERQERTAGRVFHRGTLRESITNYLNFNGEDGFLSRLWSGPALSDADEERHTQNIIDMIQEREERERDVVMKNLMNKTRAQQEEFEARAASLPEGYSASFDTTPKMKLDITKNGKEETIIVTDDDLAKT
Experiment: two-hybrid; Euc1 constructs against BD-Slx5 constructs, performed as in Fig 4A; serial dilutions spotted, 30°C, 2 to 4 days

## Euc1 with the coiled-coil (CC) domain truncated, yeast two-hybrid fusion (S. cerevisiae) (domain or fragment)
  binding: no binding
